Results on eleven sequences are retold here after publication PMC12113857.

A negative result means that nothing was seen under these conditions. For some of these results: Protein sequences can lack the tags named with them. The exact form of at least one protein or probe is not confirmed. For some of these results: A weaker result is weaker than the reference pair of the same experiment.

For data set [1], the target named is MprA, phosphorylated with acetylphosphate (Corynebacterium glutamicum ATCC 13032) (UniProt H7C6D1). In words: EMSA. The settings on record: acetylphosphate, Buffer P: 50 mM Tris-HCl pH 7.5, 50 mM KCl, 10 mM MgCl2, 0.5 mM EDTA, 10% glycerol, 30 min at 20 C, DNA 25-107 nM, protein 0-64-fold molar excess, 6% native PAGE, recombinant protein, protein details: C-terminal His6.

Data set [2] deals with T1, MprA, unphosphorylated (Corynebacterium glutamicum ATCC 13032).
T1 sequence (looked up): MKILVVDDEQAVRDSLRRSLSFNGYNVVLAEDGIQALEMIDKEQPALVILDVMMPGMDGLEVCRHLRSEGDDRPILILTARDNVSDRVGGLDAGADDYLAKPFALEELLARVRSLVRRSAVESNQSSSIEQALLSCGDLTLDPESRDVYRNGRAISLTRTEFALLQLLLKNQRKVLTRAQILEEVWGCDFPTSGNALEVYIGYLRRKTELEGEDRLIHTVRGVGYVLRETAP
Briefly: EMSA. The following applies: no acetylphosphate; Buffer P: 50 mM Tris-HCl pH 7.5, 50 mM KCl, 10 mM MgCl2, 0.5 mM EDTA, 10% glycerol; 30 min at 20 C; DNA 25-107 nM, protein 0-64-fold molar excess; 6% native PAGE; recombinant protein; residues 1-232; protein details: C-terminal His6; probe letters rebuilt from the primers and the genome.

Setting [3] is: probe letters rebuilt from the primers and the genome.

Regarding “AATATTCTAAGAAACAGTTCAAGTTTTGCT (double strand) [cg0793 -43 to -14 (label 6)]”, the binding result in data set [1] (shift at 4-fold molar excess) was “binds”.
In the case of “ACCAGTCCACGTCGTTTACACAGGTTAACCACGGTGTCGATGATCGATTGCTGAGCCACGTCGGATGCTCTCCTCCACGTCGAATGAAAAAATAACCGTCCCTTTTAGGACATACCCAACCAATCCTAGCCCAACTAACGATGTTGCTTCCGCTGACCCCGTCATTTTGCGGTCTTCGCGATGTAAACTAGTTCTAATAACTATTTTTTCATTTCCCTCATAAAAGGTTTATATAGAAGGTAAAATAGCAAGCGTGCTAGATCCATTCCAGACCTAGCCTAAGGACGGAAGGACTTCCCC (double strand) [znr promoter]”, the binding result in data set [1] (setting [3]) is reported as “binds”.
Regarding “AGAGGATCCGATCGAGAAGTCGCGCCGGGATCCAGACGATGTGAACAAGGCGCTGGCGGCGGCGGATATGTATGTGTTGATGAATCAGCCGGACACAGCGCTCGCGCACCTTGCAGCACTATTGCCAAAACCGGAGGCTGCCCGGCGGATCGTGGAGTTGCTGAACTTGTTTGATCCGCTGGACCTGGTCGCATTGGAAATCAGGGCGCAGGTGGGGAATGCAATGAGCTAAGAAAACACTTTAAATATTCTAAGAAACAGTTCAAGTTTTGCTGTAGTTTAGATATGACAAGGCAATGACACAAGGAGACAA (double strand) [cg0793 promoter]”, the figures for the binding result in data set [1] (setting [3]) and in data set [2] were “binds” and “binds more weakly”, respectively.
For the sequence “ATCGTGGTCTGATGCAGCACCTGGTGAGGTGGCTGAGCCGGTGATTGAAAAGATTGCACAAGGTTTACGTGAGCGCGGAATCACCGTGGAACAAGGACGATTCGGCGCAATGATGAAGGTCACATCGGTTAACGAAGGCCCCTTCACCGTTTTGGTCGAGTGCTAGCCAGTCAATCCTAAGAGCTTGAAACGCCCCAATGTGGGGGTGTTAAGAACTCCATAAAAGCGCTTGGGAACTTTTTGTGGAAGCAGTCCGTTGAACCTCTTGAACCGCGAATTTAGGAGGCCAGTT (double strand) [sigB promoter]”, in data set [1] (setting [3]), the binding result is reported as “binds”.
On to “ATGAGCTAAGAAAACACTTTAAATATTCTA (double strand) [cg0793 -64 to -35 (label 5)]”, for which the binding result in data set [1] (shift at 4-fold molar excess) is recorded as “binds”.
“CGGTTTTTTCCGAGTCTCGCTGATGCGGCGTCGTTGCTGCACGATGTTCTCCCTGATGATATTGGTGCGGCTGAGACTATATGAAACAACTGAGAAGCCTAGTGCACTTCTGGGGATAATGGTACCTATGTGACTAAAGTTTCGTAGGGTGTGTCGCAAGTTGTTAAGAGCCTGTGAGAACGACAAAGGTATCTGGGTGTGGATATGCCCTGCTAACTGGAGAAACTTGGCCCGATCGGGTGTCTGAAATTTCGGCAACGCCGAATGTAAGTTAGTGTCGAATGCATGACGGAATCGAAA (double strand) [csp promoter]”: the binding result in data set [1] (setting [3]) is “binds”.
Same read-out and setting: the value for “CTTACATTTTCCCTGCCACCCCTACGGGGGCTTTCATTTGACCAGCACCGATGGTGATTTTATGGTGTAGGACACCATCCGTTCTTTTTCAGGGGAATTTCGGTGAGAACCCGAAGCTGACCCGCAACCGTATTATGCAATCGCTTTCACCAGGTATTGCATTAAGCCGGATCACCTGAATAAGAAATGAGTGGCTCCAAACCGTCGAGGATTACGGTTCTGAAGCCCGTATTGAAGCGCAGTAATGTGTGCCTTAAAGCGGGGTCAGAACATTTCTCCAATTCATTTTAAGGACATGTTTTC (double strand) [cg0625 promoter]” was “binds”; that for “GATTTGATTATGAACCCTGTGGCTGGGGCGTCACTCTAAGTAGTCTGAACACTTCCTGTGAGCTCTTTAGTGGTTTAATCATCGACATTTTCGAACCCGCTGCGAATGGGTTCCCCTGGCAAATCAATAGTGATTCTCGTTCCGCCATCATCTGATTCACCCACAACGAGTTGGCCACCATGCCGATTCACAACCTGATTCACGATGGCAAGACCTAATCCCGATCCCGGCATGGAACGGGAGCTGACGGCGCGATAGAACCGTTCCAAAACTAATCCTCGTTCTTTTTCAGCAATTCCAGGCCCT (double strand) [htrA promoter]” was “binds”; that for “GGAGACAGACCTTAGCAACTAATCTGTTAAACCCCTGGCAACACAACGATGTATGTTAAGAAATTTCTTCTACAACCTTTTTTATAGCTCTGGTTGGAGGAAAGCTTCCTCGAAATTCTTGAGCGCAAATTTGGTTTTCCCGGCGCGGATTTTGCGCTGACGGTCGGTCAAAGAAGGGTCCTCGAGGTTGAAAAATCCCGTGTCGAAACGGTTGGCGCCCCGAGGATAGGTCTGCTTGCGGAGCCCTTCGACCAGTGTGGTGCAGTAGTCCATGATTCTGTCGAATTCTGCTGGGTCGTT (double strand) [bla promoter]” was “binds”.
Still for that read-out and setting: the entry for “TAATCGCGATGGCACCAGTGGAGCCGTTGCCATTGGTGGTGGCAGCCAAAGTGGTTAGCAGCTGGCCAGTCATTTCATCCGGGGCGGGGAGACCGAACTCGGCGGCGTCTTCACGAGCGCGCGCTACAGCAGCGTCGGTTTCAGTAGTGGACTCGACATAAGTGCGAAGATACTCGAAGGCGTTACTCACGCGTTATAGTCTAGAGCGAGCAGGCGAGATGTGAAGTACCTACACGCATTAAGTGCAAATGAATTCACAATTGCCAGAAGATGCACAGGATGTAATCTAGATTTCCCAAGTTCAGTGGGGCAAA (double strand) [sigE promoter]” is “binds”.
“TGTTGCGACTCACCTCTTTTGTGTCTTTCGAGAGATTCTTTTAATGCTTGCGATGTGGACTTTGCTGGTGCTGGCCTGTGCACTGGATCGTCCTGGCCGTGATATTTCACTTCAAAAACTCTGGTGCAATCCGCACACAACCACGCGAATTCTGTTTGCTCATCGGGGAAAAGAACTTCTCCCGCGCAGTATGGGCAGTACAGAGGGTGGTTGCGGTTGGGATTGGGTTTCCTCCGAAGACTCACACCAAATCTTCCTCAGCGGCCCGCTGGACCCAATCGCGGAAGTGCTCGTCCTCGTGGCGCTGTTCCTTGAAGTGGGTAACAACGC (double strand) [cysD promoter]”: the binding result in data set [1] (setting [3]) and in data set [2] was “no binding” in each case.
